PMC7367195
These are yes or no findings as the source states them, for the method shown. Binding seen in cells or lysates may run through a third protein. Some entries that bind do so weakly or less than the wild type.

The chains behind the UniProt entries cited, without tags or fusion partners.
UniProt Q9EQQ0: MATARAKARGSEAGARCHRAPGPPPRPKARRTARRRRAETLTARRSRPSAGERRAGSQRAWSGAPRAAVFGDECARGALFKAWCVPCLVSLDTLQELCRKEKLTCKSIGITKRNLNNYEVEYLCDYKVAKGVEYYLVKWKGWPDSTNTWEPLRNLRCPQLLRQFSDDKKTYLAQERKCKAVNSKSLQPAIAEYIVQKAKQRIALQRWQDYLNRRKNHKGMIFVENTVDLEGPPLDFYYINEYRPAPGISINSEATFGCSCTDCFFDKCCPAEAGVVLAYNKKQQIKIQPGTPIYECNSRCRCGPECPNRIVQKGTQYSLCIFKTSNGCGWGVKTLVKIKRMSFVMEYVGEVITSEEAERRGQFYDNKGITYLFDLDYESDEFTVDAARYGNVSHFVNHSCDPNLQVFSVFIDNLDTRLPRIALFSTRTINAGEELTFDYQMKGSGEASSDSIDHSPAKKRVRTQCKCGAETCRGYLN
UniProt Q8R418: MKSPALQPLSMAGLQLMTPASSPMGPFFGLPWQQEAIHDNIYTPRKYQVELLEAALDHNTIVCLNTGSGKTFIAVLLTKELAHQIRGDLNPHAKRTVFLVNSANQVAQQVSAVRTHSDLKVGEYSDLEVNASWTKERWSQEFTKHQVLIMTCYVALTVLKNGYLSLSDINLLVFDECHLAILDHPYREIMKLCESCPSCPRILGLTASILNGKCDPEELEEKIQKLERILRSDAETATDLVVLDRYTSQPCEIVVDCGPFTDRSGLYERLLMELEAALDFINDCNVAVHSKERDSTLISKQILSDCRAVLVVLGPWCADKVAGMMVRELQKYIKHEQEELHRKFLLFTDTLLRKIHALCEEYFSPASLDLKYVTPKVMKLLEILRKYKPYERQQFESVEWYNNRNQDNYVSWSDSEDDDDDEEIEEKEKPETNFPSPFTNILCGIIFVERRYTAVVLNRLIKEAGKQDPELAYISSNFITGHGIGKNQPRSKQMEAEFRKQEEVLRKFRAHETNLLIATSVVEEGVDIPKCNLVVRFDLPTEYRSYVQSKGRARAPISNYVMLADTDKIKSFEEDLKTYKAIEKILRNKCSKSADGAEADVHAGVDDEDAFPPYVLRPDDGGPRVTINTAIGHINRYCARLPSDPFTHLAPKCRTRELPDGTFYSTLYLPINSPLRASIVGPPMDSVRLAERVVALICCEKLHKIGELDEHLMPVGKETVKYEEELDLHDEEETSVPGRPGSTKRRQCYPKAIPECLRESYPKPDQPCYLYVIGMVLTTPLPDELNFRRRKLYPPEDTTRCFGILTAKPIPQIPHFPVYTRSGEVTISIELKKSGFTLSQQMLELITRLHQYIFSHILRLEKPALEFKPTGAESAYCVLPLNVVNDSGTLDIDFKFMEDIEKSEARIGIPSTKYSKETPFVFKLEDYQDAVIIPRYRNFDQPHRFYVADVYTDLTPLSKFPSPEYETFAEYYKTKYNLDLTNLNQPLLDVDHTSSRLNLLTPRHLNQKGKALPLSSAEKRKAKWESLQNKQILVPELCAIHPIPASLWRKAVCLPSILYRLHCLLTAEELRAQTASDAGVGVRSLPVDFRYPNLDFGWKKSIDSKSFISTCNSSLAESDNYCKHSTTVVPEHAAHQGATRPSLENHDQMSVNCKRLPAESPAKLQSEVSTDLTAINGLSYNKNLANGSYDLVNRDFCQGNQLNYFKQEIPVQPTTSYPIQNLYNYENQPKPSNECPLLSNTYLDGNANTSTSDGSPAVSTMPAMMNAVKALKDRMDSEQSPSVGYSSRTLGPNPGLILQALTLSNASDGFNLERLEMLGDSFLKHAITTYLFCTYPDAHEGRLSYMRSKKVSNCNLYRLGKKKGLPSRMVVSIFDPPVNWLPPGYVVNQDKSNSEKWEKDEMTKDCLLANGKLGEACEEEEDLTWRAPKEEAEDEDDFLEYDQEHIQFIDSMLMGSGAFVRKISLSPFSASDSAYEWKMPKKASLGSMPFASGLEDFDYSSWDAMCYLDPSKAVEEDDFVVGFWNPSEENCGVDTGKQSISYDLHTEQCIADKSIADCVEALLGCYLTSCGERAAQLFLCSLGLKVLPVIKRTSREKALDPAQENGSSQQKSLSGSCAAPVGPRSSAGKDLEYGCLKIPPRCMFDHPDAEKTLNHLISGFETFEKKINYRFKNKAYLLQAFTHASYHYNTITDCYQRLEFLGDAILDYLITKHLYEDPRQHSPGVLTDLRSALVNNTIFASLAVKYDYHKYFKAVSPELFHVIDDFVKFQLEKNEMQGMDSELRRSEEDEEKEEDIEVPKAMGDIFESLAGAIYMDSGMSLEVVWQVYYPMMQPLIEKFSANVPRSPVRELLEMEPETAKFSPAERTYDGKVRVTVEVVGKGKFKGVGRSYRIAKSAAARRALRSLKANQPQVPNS

How the values were obtained:
[1] = molecular target: SUV39H2 (Suppressor of variegation 3–9 homolog 2) (mouse (endogenous in testis)) (UniProt Q9EQQ0); test: co-IP; 18 dpp mouse testis lysate (50 mM Tris–HCl pH 7.5, 150 mM NaCl, 1.5 mM MgCl2, 1% Triton X-100, 0.1% NP-40); 2–3 μg antibody overnight at +4°C, Dynabeads Protein G; western blotting; rabbit IgG as control
[2] = molecular target: DICER (mouse (endogenous in testis)) (UniProt Q8R418); test: as above

DICER (from UniProt Q8R418 1-1916) (enzyme)
binding [1]: binds

B1: TRIM33 (Tripartite motif-containing 33) (protein, UniProt Q99PP7 1-1142)
chain: MAENKGGGEAESGGGGSGSAPVTAGAAGPTAQEAEPPLAAVLVEEEEEEGGRAGAEGGAAGPDDGGVAAASSSSAPAASVPAASVGSAVPGGAASTPAPAAAPAPAPAPAPAPAPAPAPAPAPGSSSGPPLGPPASLLDTCAVCQQSLQSRREAEPKLLPCLHSFCLRCLPEPERQLSVPIPGGSNGDVQQVGVIRCPVCRQECRQIDLVDNYFVKDTSEAPSSSDEKSEQVCTSCEDNASAVGFCVECGEWLCKTCIEAHQRVKFTKDHLIRKKEDVSESVGTSGQRPVFCPVHKQEQLKLFCETCDRLTCRDCQLLEHKEHRYQFLEEAFQNQKGAIENLLAKLLEKKNYVHFAATQVQNRIKEVNETNKRVEQEIKVAIFTLINEINKKGKSLLQQLENVTKERQMKLLQQQNDITGLSRQVKHVMNFTNWAIASGSSTALLYSKRLITFQLRHILKARCDPVPAANGAIRFHCDPTFWAKNVVNLGNLVIESKPAPGYTPNVVVGQVPPGTNHISKTPGQINLAQLRLQHMQQQVYAQKHQQLQQMRLQQPPAPIPTTTATTQQHPRQAAPQMLQQQPPRLISVQTMQRGNMNCGAFQAHQMRLAQNAARIPGIPRHSAPQYSMMQPHLQRQHSNPGHAGPFPVVSAHNPINPTSPTTATMANANRGPTSPSVTAIELIPSVTNPENLPSLPDIPPIQLEDAGSSSLDNLLSRYISGSHLPPQPTSTMNPSPGPSALSPGSSGLSNSHTPVRPPSTSSTGSRGSCGSSGRTAEKSAHSFKSDQVKVKQEPGTEEEICSFSGAVKQEKTEDGRRSACMLSSPESSLTPPLSTNLHLESELDTLTGLENHVKTEPTDISESCKQSGLSNLVNGKSPIRNLMHRSARIGGDGNSKDDDPNEDWCAVCQNGGDLLCCEKCPKVFHLTCHVPTLLSFPSGDWICTFCRDIGKPEVEYDCDNMQHSKKGKTAQGLSPVDQRKCERLLLYLYCHELSIEFQEPVPVSIPNYYKIIKKPMDLSTVKKKLQKKHSQHYQIPDDFVADVRLIFKNCERFNEMMKVVQVYADTQEINLKGDSEVAKAGKAVALYFEDKLSEIYSDRTFTPLPEFEQDEDDGEVTEDSDEDFIQPRRKRLKSDERPVHIK
binding [2]: binds
